The name of at least one read-out is uncertain.
Test system: paw twitch
Test: Twitch depression (muscle relaxant effect) in anesthetized rabbits; rabbit paw twitch
Type: in vivo, New Zealand White rabbits
Details: Table VI, at indicated dose
Description: [The procedure below names another organism; the source lists this organism under the same test.] Mongrel dogs were injected with 50 mg/kg of pentobarbital until the onset of anesthesia as determined by the eyeblink reflex test. The injectable solutions prepared above were administered intravenously to the anesthesized mongrel dogs and measurements were made of the muscle relaxant effect including maximum twitch depression, onset, duration and recovery time in a clinically known manner. Each of the subjects were compared with a control animal receiving an injection of distilled water.
The same compound of the present invention as in
A number of compounds in accordance with the present invention were tested for their neuromuscular blockade Properties. Specifically, the acid addition salts of the compounds were dissolved in sterile water for injection.

Question: Which Duration does the source give for `CC1(C)CC(N2CCC3(CC2)OCC2(CO3)COC3(CCN(C4=CC(=[N+]5CC6CCC(CC6)C5)CC(C)(C)C4)CC3)OC2)=CC(=[N+]2CC3CCC(CC3)C2)C1` [compound 17] here?
Answer: 8.9 min

Source: patent US4863918A, “Enamine quaternary compounds, methods of making and their use as muscle relaxants” (BOC, Inc., priority 1988, dated 1989)
